Measurements from PubChem BioAssay AID540276 (National Center for Advancing Translational Sciences (NCATS), 2011).
Several values for one entry are separate records, joined by “and”; a condition that tells them apart may be missing. Identical values can stand only once. The whole screen tested about 300,000 compounds, of which about 5,400 (1.8%) were called active. Inconclusive results, whose numbers are uncertain, are shown with a selection of clear calls. The call rests on the fitted dose curve; tested in HEK293 cells. Potencies beside an inconclusive call are fits to weak or partial responses and may not hold up.
On the % scale 0 is the no-effect control and ±100 the full control effect; potency means the concentration at half of the fitted maximal effect.

Assay: qHTS for inhibitors of binding or entry into cells for Marburg Virus
Conditions: Marburg virus pseudotyped entry inhibition, cell reporter; activity change, negative = inhibition: at 37.8 µM (top of the series) unless noted
In the case of `COc1cc(O)c(C=Nc2ccccc2NS(=O)(=O)c2ccc(C)cc2)c(OC)c1`, the “activity change, negative = inhibition” value is reported as inactive: 20.6%.
For `COCCNC(=O)c1nc2ccccc2s1`, the Potency was inconclusive: 10 µM [activator, single point].
In the case of `CC(=O)N1CCN(CCN=CC2=C(O)CC(c3ccc(Cl)cc3)CC2=O)CC1` (stereo not drawn), the Potency is reported as inconclusive: 5.62 µM [inhibitor, single point].
In the case of `Cn1c(NCc2cccc(Br)c2)nc2ccccc21`, the Potency is reported as inconclusive: 23.1 µM [inhibitor, single point].
With `CCCCOc1cccc(/C=N/NC(=O)c2csc(C)c2C)c1` the Potency was inconclusive: 12.6 µM [inhibitor, single point].
In the case of `Fc1ccc(-c2csc(-c3nc(-c4ccc(Br)s4)cs3)n2)cc1`, the Potency is reported as inconclusive: 3.98 µM [inhibitor, partial curve, poor fit].
With `CCSc1nc(COC(=O)NC)c(COC(=O)NC)n1C` the Potency was inconclusive: 8.91 µM [inhibitor, partial curve, poor fit].
With `O=C1C2CC=C(Cl)CC2C(=O)N1CN(Cc1ccco1)CN1C(=O)C2CC=C(Cl)CC2C1=O` (stereo not drawn) the Potency was “inactive”.
For `CCOc1ccc(N2C(=O)c3cccnc3C2Nc2ccc(C)c(C)c2)cc1` (stereo not drawn), the “activity change, negative = inhibition” value was inactive: 15.7%.
With `CC1CCCCN1C(=O)CSc1nnc(-c2cccc(Cl)c2)o1` (stereo not drawn) the Potency was inconclusive: 11.2 µM [activator, partial curve, poor fit].
For `Cc1ccc(Nc2ncc(C(=O)NCCCN3CCN(C)CC3)c3ccccc23)cc1Cl`, the Potency was inconclusive: 10 µM [inhibitor, partial curve, poor fit].
With `O=C(Nc1cccc(S(=O)(=O)N2CCCC2)c1)c1ccc2c(=O)n3c(nc2c1)CCCCC3` the Potency was inconclusive: 11.2 µM [inhibitor, partial curve, poor fit].
In the case of `COc1ccc(C(=O)Nc2sc(C)c(C)c2CN2CCOCC2)cc1`, the Potency is reported as inconclusive: 11.2 µM [inhibitor, partial curve].
With `Cn1c(=O)oc2cc(S(=O)(=O)NCCC(=O)Nc3ccc(F)c(Cl)c3)ccc21` the “activity change, negative = inhibition” value was inactive: -0.0414% [at 46.1 µM].
For `O=c1c2c(nc3nc(COc4ccccc4)[nH]n13)CCC2`, the Potency was inconclusive: 14.1 µM [activator, single point].
For `COc1ccc(Sc2nnc(Cc3ccccc3)c3ccccc23)cc1`, the Potency was inconclusive: 23.1 µM [inhibitor, partial curve, poor fit].
For `Cc1c(C(=O)OCCOc2ccccc2)[nH]c2c1C(=O)CCC2`, the Potency was inconclusive: 7.08 µM [inhibitor, partial curve, poor fit].
With `CCOC(=O)c1c(NC(=O)C2CCCCC2C(=O)O)sc2c1CCCC2` (stereo not drawn) the “activity change, negative = inhibition” value was inactive: -12.1%.
With `COc1ccc(N2CCN(c3cc(C)c4ccccc4n3)CC2)cc1` the “activity change, negative = inhibition” value was inactive: -0.729%.
For `CC(C)CCNC(=O)CN(Cc1ccc(F)cc1)C(=O)CCC(=O)Nc1ccccn1`, the Potency was inconclusive: 10 µM [activator, partial curve, poor fit].
With `Cc1nccc2c1[nH]c1ccccc12` the Potency was inconclusive: 20 µM [activator, partial curve, poor fit] and inconclusive: 2.82 µM [inhibitor, full curve].
For `Brc1ccc(Oc2ncc(CN3CCN(c4ccccc4)CC3)s2)cc1`, the Potency was inconclusive: 25.1 µM [inhibitor, single point].
In the case of `CCc1cccc2c(C(=O)COC(=O)/C=C/c3ccc(O)c(OC)c3)c[nH]c12`, the Potency is reported as inconclusive: 28.2 µM [inhibitor, single point].
In the case of `O=C1CN(C(=O)CC2c3ccccc3-c3ccccc32)CC(=O)N1`, the Potency is reported as inconclusive: 0.112 µM [activator, partial curve, poor fit].
With `CCC(Cn1nnc2ccccc2c1=O)NC(=O)Nc1cc(Cl)ccc1OC` (stereo not drawn) the Potency was inconclusive: 15.8 µM [inhibitor, single point].
For `CN1CCC[C@@H]1c1cccnc1`, the Potency was inconclusive: 20.6 µM [activator, partial curve, poor fit].
With `CN(/N=C\c1ccc(O)c(O)c1)c1nc(-c2ccccc2)cc(-c2ccccc2)n1` the Potency was inconclusive: 35.5 µM [inhibitor, partial curve, poor fit].
With `Cc1ccc(S(=O)(=O)N2CCCN(S(=O)(=O)c3ccc4ccccc4c3)CC2)cc1` the Potency was inconclusive: 32.6 µM [inhibitor, partial curve, poor fit].
For `CC(C)c1ccc(C2CC(=O)N3CN(C)CSC3=C2C#N)cc1` (stereo not drawn), the “activity change, negative = inhibition” value was inactive: -1.02%.
With `CN1CCN(C(CNC(=O)C(=O)Nc2ccc3c(c2)OCCO3)c2ccc(F)cc2)CC1` (stereo not drawn) the Potency was inconclusive: 11.2 µM [inhibitor, single point].
In the case of `COc1cccc(NC(=O)CN(C)C(=O)CCCc2nc3ccccc3s2)c1`, the “activity change, negative = inhibition” value is reported as inactive: 0.811%.
In the case of `COC(=O)c1cccc(S(=O)(=O)N(Cc2ccco2)Cc2cc3ccc(OC)cc3[nH]c2=O)c1`, the “activity change, negative = inhibition” value is reported as inactive: -28.7%.
In the case of `CCN(CC)C(=O)CN(c1ccc2c(c1)OCO2)S(C)(=O)=O`, the “activity change, negative = inhibition” value is reported as inactive: 12.7%.
For `Cc1ccc(OCC(O)CN2CC3(C)CC2CC(C)(C)C3)cc1` (stereo not drawn), the Potency was inconclusive: 3.55 µM [inhibitor, full curve].
With `Cc1ccc(-c2nc3ccc(NS(=O)(=O)c4ccccc4)cc3[nH]2)o1` the “activity change, negative = inhibition” value was inactive: -0.891%.
In the case of `Fc1ccccc1N1CCN(CC2CC3C=CC2C3)CC1` (stereo not drawn), the Potency is reported as inconclusive: 9.2 µM [inhibitor, partial curve].
In the case of `CCOc1ncccc1C(=O)OCC(=O)Nc1cc(S(=O)(=O)N2CCOCC2)ccc1C`, the Potency is reported as inconclusive: 2.82 µM [activator, full curve, poor fit].
For `CCOC(=O)c1oc2c(O)c(O)ccc2c(=O)c1-c1nncn1-c1ccccc1`, the Potency was inconclusive: 11.2 µM [inhibitor, partial curve].
For `O=C(N/N=C/c1cccc([N+](=O)[O-])c1)c1cccs1`, the “activity change, negative = inhibition” value was inactive: 25.9%.
In the case of `Cc1ccc2c(c1)c(=O)c(S(=O)(=O)c1ccc(F)cc1)cn2CC(=O)Nc1ccc2c(c1)OCO2`, the “activity change, negative = inhibition” value is reported as inactive: -21.8% [at 46.1 µM].
In the case of `COC(=O)C1=NN=C(C(=O)OC)[C@@]2(C)c3ccccc3NC12` (stereo partly drawn), the Potency is reported as inconclusive: 5.96 µM [activator, single point].
For `CCOc1ccc(-c2nonc2NC(=O)c2ccccc2C)cc1`, the “activity change, negative = inhibition” value was inactive: 1.67% [at 46.1 µM].
With `COc1ccc2[nH]c3c(c2c1)CCN1C(=O)C(CC(=O)NCC24CC5CC(CC(C5)C2)C4)C[C@H](C(=O)N2CCOCC2)[C@@]31CCC1CCCC1` (stereo partly drawn) the “activity change, negative = inhibition” value was inactive: 1.94%.
With `Cc1ccc(Cn2nc(C)c(NC(=O)c3nn(C)cc3Cl)c2C)cc1` the “activity change, negative = inhibition” value was inactive: -17.6%.
In the case of `CCOC(=O)C1=C(C)N(CC(C)C)C(=O)/C1=C\c1cccs1`, the “activity change, negative = inhibition” value is reported as inactive: 12.4% [at 46.1 µM].
For `CCOC(=O)c1c(C)oc2c1c(C=NCCO)c(O)c1ccccc12`, the Potency was inconclusive: 35.5 µM [inhibitor, single point].
With `COc1ccc2c(Sc3ccccc3)c(C(=O)NCCN(C)C)[nH]c2c1` the “activity change, negative = inhibition” value was inactive: 17.3% [at 46.1 µM].
With `Cc1ccc(S(=O)(=O)Cn2nnnc2C(c2ccccn2)N2CCN(c3ccccc3)CC2)cc1` (stereo not drawn) the Potency was inconclusive: 32.6 µM [inhibitor, single point].
In the case of `COc1ccc(C(=O)/C(=C/c2cccs2)c2nc3ccccc3o2)cc1`, the Potency is reported as inconclusive: 22.4 µM [inhibitor, single point].
In the case of `CCN(CC(=O)Nc1ccccc1C(F)(F)F)CC(=O)NC1CC1`, the Potency is reported as inconclusive: 0.0891 µM [inhibitor, full curve, poor fit].
With `CCc1ccc(CN(Cc2ccco2)C(=O)c2cc(-c3ccc(Cl)cc3)on2)cc1` the “activity change, negative = inhibition” value was inactive: 22.6% [at 46.1 µM].
In the case of `O=C(NCC(c1ccco1)N1CCN(c2ccc(F)cc2)CC1)C(=O)NC1CC1` (stereo not drawn), the Potency is reported as inconclusive: 35.5 µM [activator, single point].
With `COc1cccc(-c2nnc(SCC(=O)N3CCCC3=O)n2-c2ccccc2)c1` the “activity change, negative = inhibition” value was inactive: 3.07%.
With `O=C(NCCC1CCCCN1S(=O)(=O)c1cccs1)C(=O)Nc1ccc(F)cc1F` (stereo not drawn) the Potency was inconclusive: 2.82 µM [inhibitor, full curve, poor fit].
For `O=C(NCCCN1CCOCC1)C1CCN(S(=O)(=O)c2c(Cl)cccc2Cl)CC1`, the “activity change, negative = inhibition” value was inactive: 13.7% [at 46.1 µM].
For `CN(CC(=O)Nc1cccc(F)c1)C(=O)/C=C/c1ccc2ccccc2n1`, the “activity change, negative = inhibition” value was inactive: -28.5% [at 46.1 µM].
For `O=C(COC(=O)c1ccccc1SCC(=O)N1CCCC1)NC1CCCCC1`, the Potency was inconclusive: 0.447 µM [inhibitor, single point].
In the case of `CC1(C)NC(=O)N(CCCCOc2ccc3c(c2)CCC3)C1=O`, the “activity change, negative = inhibition” value is reported as inactive: -18%.
In the case of `O=C(O)Cc1sc(-c2ccccc2)nc1-c1ccccc1`, the “activity change, negative = inhibition” value is reported as inactive: 14.5%.
In the case of `CCc1nc2oc3ccccc3c(=O)c2cc1C(=O)OC`, the Potency is reported as inconclusive: 31.6 µM [activator, single point].
With `CC(C)=CCC/C(C)=C/CNC(=O)C[C@H]1C[C@H](C(=O)N2CCOCC2)[C@@]2(C)c3[nH]c4cc(CCC(=O)N(C)C)ccc4c3CCN2C1=O` the “activity change, negative = inhibition” value was inactive: 0.342%.
In the case of `CCOC(=O)c1c(C)cc(C)n2c1nc1ccccc12`, the Potency is reported as inconclusive: 1 µM [inhibitor, partial curve].
With `COc1ccc(/C=N/OCC(=O)OCC(=O)N(C)c2ccccc2)cc1` the “activity change, negative = inhibition” value was inactive: 13.6%.
For `COc1ccccc1-c1ccc(=O)n(CC(=O)NCc2cccs2)n1`, the Potency was inconclusive: 10 µM [inhibitor, single point].
For `Cc1nc(N2CCN(c3ccccn3)CC2)c2c(C)c(C(=O)N3CCN(c4ccc(F)cc4)CC3)sc2n1`, the Potency was inconclusive: 11.2 µM [inhibitor, partial curve, poor fit].
With `COc1ccc2oc(C(=O)NC3(C)CCS(=O)(=O)C3)c(C)c2c1` (stereo not drawn) the Potency was inconclusive: 2.82 µM [activator, single point].
In the case of `O=C(CCN1CCCCC1)N/N=C/c1ccc(Br)cc1`, the Potency is reported as inconclusive: 5.8 µM [inhibitor, partial curve, poor fit].
In the case of `Cc1nc2cc(-c3cccc(F)c3)nn2c(C)c1CCC(=O)N1CCN(c2ccc(F)cc2)CC1`, the Potency is reported as inconclusive: 5.62 µM [inhibitor, single point].
